# Data published in patent US20150299252A1.
# Sequences of proteins named here, by UniProt entry; tags and fusion partners are left off. Residues count along the entry.
# UniProt P0DKL3, residues 30-278: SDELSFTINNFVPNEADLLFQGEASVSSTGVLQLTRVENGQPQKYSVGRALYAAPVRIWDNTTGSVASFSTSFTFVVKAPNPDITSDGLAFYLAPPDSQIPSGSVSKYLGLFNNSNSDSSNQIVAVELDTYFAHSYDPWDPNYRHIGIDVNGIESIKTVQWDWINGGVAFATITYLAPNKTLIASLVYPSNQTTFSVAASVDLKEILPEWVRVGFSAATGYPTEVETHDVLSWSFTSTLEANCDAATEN
# No constants are given. Whether binding was seen depends on the method and setting. Some binding calls cover weakened binding; strength is not graded here.
# Target: lectin MAA from Maackia amurensis (Maackia amurensis) (UniProt P0DKL3)
# Experiment: solid-phase assay
binder,measurement,value
VGGGS [SVC2 (VGGGS)],binding,binds
